# From PMC7949032
# Columns and labels:
# [1] = target: DDX43 full-length A81G (UniProt Q9NXZ2); test: EMSA; settings: no ATP, weaker than WT, EMSA: 40 mM Tris pH 8.0, 0.5 mM MgCl2, 15 mM NaCl, 0.01% NP-40, 0.1 mM DTT, 1 mg/ml BSA, ice 30 min (Fig 2A legend: RT), recombinant protein, residues 1-648, label: 5'-32P
# [2] = target: DDX43 full-length A81S (UniProt Q9NXZ2); test: EMSA; settings: no ATP, weaker than WT, EMSA: 40 mM Tris pH 8.0, 0.5 mM MgCl2, 15 mM NaCl, 0.01% NP-40, 0.1 mM DTT, 1 mg/ml BSA, ice 30 min (Fig 2A legend: RT), recombinant protein, residues 1-648, label: 5'-32P
# [3] = target: DDX43 full-length G87D (UniProt Q9NXZ2); test: EMSA; settings: no ATP, weaker than WT, EMSA: 40 mM Tris pH 8.0, 0.5 mM MgCl2, 15 mM NaCl, 0.01% NP-40, 0.1 mM DTT, 1 mg/ml BSA, ice 30 min (Fig 2A legend: RT), recombinant protein, residues 1-648, label: 5'-32P
# [4] = target: DDX43 full-length WT (UniProt Q9NXZ2); test: EMSA; settings: no ATP, EMSA: 40 mM Tris pH 8.0, 0.5 mM MgCl2, 15 mM NaCl, 0.01% NP-40, 0.1 mM DTT, 1 mg/ml BSA, ice 30 min (Fig 2A legend: RT), recombinant protein, residues 1-648, label: 5'-32P
# [5] = target: T1, DDX43 KH-89 (UniProt Q9NXZ2); test: NMR HSQC titration; settings: NMR: 25 mM Hepes pH 7.4, 250 mM NaCl, 5% D2O, temperature not stated, recombinant protein, residues 54-142, single-stranded DNA
# T1 sequence (looked up): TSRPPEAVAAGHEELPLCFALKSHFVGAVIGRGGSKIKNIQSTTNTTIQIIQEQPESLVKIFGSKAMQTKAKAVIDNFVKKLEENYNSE
# [6] = tested on: DDX43 KH-126; test: EMSA; settings: EMSA: 40 mM Tris pH 8.0, 0.5 mM MgCl2, 15 mM NaCl, 0.01% NP-40, 0.1 mM DTT, 1 mg/ml BSA, no ATP, ice 30 min (Fig 2A legend: RT), recombinant protein, protein details: His (pET28a), label: 5'-32P
# [7] = target: T2, DDX43 KH-74 (UniProt Q9NXZ2); test: EMSA; settings: EMSA: 40 mM Tris pH 8.0, 0.5 mM MgCl2, 15 mM NaCl, 0.01% NP-40, 0.1 mM DTT, 1 mg/ml BSA, no ATP, ice 30 min (Fig 2A legend: RT), recombinant protein, protein details: His (pET28a), label: 5'-32P
# T2 sequence (looked up, limits assumed): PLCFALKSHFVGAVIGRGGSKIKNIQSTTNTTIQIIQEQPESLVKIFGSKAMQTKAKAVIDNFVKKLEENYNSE
# [8] = target: T3, DDX43 KH-89 A81G (UniProt Q9NXZ2); test: EMSA; settings: EMSA: 40 mM Tris pH 8.0, 0.5 mM MgCl2, 15 mM NaCl, 0.01% NP-40, 0.1 mM DTT, 1 mg/ml BSA, no ATP, ice 30 min (Fig 2A legend: RT), recombinant protein, residues 54-142, protein details: His cleaved by thrombin, label: 5'-32P
# T3 sequence (looked up): T1 sequence (looked up) with A28G
# [9] = target: T4, DDX43 KH-89 A81S (UniProt Q9NXZ2); test: EMSA; settings: EMSA: 40 mM Tris pH 8.0, 0.5 mM MgCl2, 15 mM NaCl, 0.01% NP-40, 0.1 mM DTT, 1 mg/ml BSA, no ATP, ice 30 min (Fig 2A legend: RT), recombinant protein, residues 54-142, protein details: His cleaved by thrombin, label: 5'-32P
# T4 sequence (looked up): T1 sequence (looked up) with A28S
# [10] = target: T1, DDX43 KH-89; test: EMSA; settings: EMSA: 40 mM Tris pH 8.0, 0.5 mM MgCl2, 15 mM NaCl, 0.01% NP-40, 0.1 mM DTT, 1 mg/ml BSA, no ATP, ice 30 min (Fig 2A legend: RT), recombinant protein, residues 54-142, label: 5'-32P
# [11] = tested on: DDX43 KH-126; test: filter binding; settings: Kd not determined, weak binding, filter binding: 25 mM Tris pH 7.5, 25 mM KOAc, 1 mM Mg(OAc)2, 1 mM DTT, 0.1 mg/ml BSA, 37 C, recombinant protein, protein details: His (pET28a), label: 5'-32P
# [12] = target: T4, DDX43 KH-89 A81S; test: NMR HSQC titration; settings: fewer and smaller shifts than WT; NMR: 25 mM Hepes pH 7.4, 250 mM NaCl, 5% D2O, temperature not stated; recombinant protein; residues 54-142; protein details: His cleaved by thrombin; single-stranded DNA
# [13] = Kd within 0.348-1.232 mM for the four A-containing 5-mers
# [14] = rU30 > dT30 > dC30 > dA30, single-stranded DNA
# [15] = similar to KH-126, single-stranded DNA
sequence,measurement,setting,value
UUUUUUUUUUUUUUUACCGUAAAGACGC / GCGUCUUUACGGU [13-bp dsRNA 5' poly(U) tail],binding result,[1],binds more weakly
same,binding result,[2],binds more weakly
same,binding result,[3],binds more weakly
same,binding result,[4]; weaker than UUGU tail,binds more weakly
ATATA,binding result,[5]; [13],binds more weakly
UGUUGUUGUUGUUGUACCGUAAAGACGC / GCGUCUUUACGGU [13-bp dsRNA 5' UUGU-repeat tail],binding result,[1],binds more weakly
same,binding result,[2],binds more weakly
same,binding result,[3],binds more weakly
CCACTCAATACACCATCACCTTTTTTTTTTTTTTTTTTTTTTTTT / GGTGATGGTGTATTGAGTGG [20-bp dsDNA 3' poly(T) tail],binding result,[1],binds more weakly
same,binding result,[2],binds more weakly
same,binding result,[3],binds more weakly
same,binding result,[4]; weaker than TTGT tail,binds more weakly
GAGCUACCAGCUACCCCGUAUGUCAGAGAG [ssRNA 30-mer],binding result,[6],binds
same,binding result,[7],binds
same,binding result,[8],binds more weakly
same,binding result,[9],binds more weakly
CACAC,binding result,[5]; [13],binds more weakly
AAAAAAAAAAAAAAAAAAAAAAAAAAAAAA [dA30],binding result,[6]; [14],binds more weakly
same,binding result,[10]; [15],binds more weakly
same,binding result,[11]; single-stranded DNA,binds more weakly
TTTTTTTTTTTTTTTTTTTTTTTTTTTTTT [dT30],binding result,[6]; [14],binds
same,binding result,[10]; [15],binds
GAGCTACCAGCTACCCCGTATGTCAGAGAG (double strand) [blunt-end dsDNA 30 bp],binding result,[6]; up to 9.6 uM protein,no binding
same,binding result,[7],no binding
same,binding result,[10],no binding
same,binding result,[11],binds more weakly
AGAGA,binding result,[5]; weaker than CTCTC,binds more weakly
CCACTCAATACACCATCACCAAAAAAAAAAAAAAAAAAAAAAAAA / GGTGATGGTGTATTGAGTGG [20-bp dsDNA 3' poly(A) tail],binding result,[1],binds more weakly
same,binding result,[2],binds more weakly
same,binding result,[3],binds more weakly
same,binding result,[4]; weaker than TTGT tail,binds more weakly
AAAAAAAAAAAAAAAACCGUAAAGACGC / GCGUCUUUACGGU [13-bp dsRNA 5' poly(A) tail],binding result,[1],binds more weakly
same,binding result,[2],binds more weakly
same,binding result,[3],binds more weakly
same,binding result,[4]; weaker than UUGU tail,binds more weakly
CCACTCAATACACCATCACCTTGTTGTTGTTGTTGTTGTTGTTGT / GGTGATGGTGTATTGAGTGG [20-bp dsDNA 3' TTGT-repeat tail],binding result,[1],binds more weakly
same,binding result,[2],binds more weakly
same,binding result,[3],binds more weakly
GTTTG,binding result,[5]; weaker than GTTGT,binds more weakly
GAGCTACCAGCTACCCCGTATGTCAGAGAG [ssDNA 30-mer],binding result,[6]; single-stranded DNA,binds
same,binding result,[7]; single-stranded DNA,binds
same,binding result,[8]; single-stranded DNA,binds more weakly
same,binding result,[9]; single-stranded DNA,binds more weakly
UUUUUUUUUUUUUUUUUUUUUUUUUUUUUU [rU30],binding result,[6]; rU30 > dT30 > dC30 > dA30,binds
same,binding result,[10]; similar to KH-126,binds
ATTAT,binding result,[5]; [13],binds more weakly
ACCAC,binding result,[5]; [13],binds more weakly
GGTTG,binding result,[5]; weaker than GTTGT,binds more weakly
TTTTT [dT5],binding result,[12],binds more weakly

# Positions count from the first letter of the chain named. For some of these results: A negative result means that nothing was seen under these conditions. For some of these results: At least one verdict was read from the data and is not stated in words by the source. For some of these results: Where a protein sequence is shown, tags need not be part of it. For some of these results: A weaker result is weaker than the reference pair of the same experiment. For some of these results: Construct, isoform or probe ends are uncertain for at least one entry.
